Experimental findings from PMC12285236, “Xylanolytic metabolism is regulated by coordination of transcription factors XynR and XylR in extremely thermophilic Caldicellulosiruptorales” are described below.

For some of these results: No signal at the amounts used counts as a negative. For some of these results: Protein sequences can lack the tags named with them. For some of these results: The exact form of at least one protein or probe is not confirmed. For some of these results: A weaker result is weaker than the reference pair of the same experiment.

In series [1] the target is XynR (Anaerocellum (f. Caldicellulosiruptor) bescii) (UniProt B9MPD1). As to the kind of experiment: BLI. To be noted: BLI: 100 nM DNA immobilized on streptavidin sensors, recombinant protein, protein details: C-terminal 6xHis, label: 5' biotin on strand 1.
The target of series [2] is T1, XylR (Anaerocellum (f. Caldicellulosiruptor) bescii) (UniProt Q44406).
T1 sequence (looked up): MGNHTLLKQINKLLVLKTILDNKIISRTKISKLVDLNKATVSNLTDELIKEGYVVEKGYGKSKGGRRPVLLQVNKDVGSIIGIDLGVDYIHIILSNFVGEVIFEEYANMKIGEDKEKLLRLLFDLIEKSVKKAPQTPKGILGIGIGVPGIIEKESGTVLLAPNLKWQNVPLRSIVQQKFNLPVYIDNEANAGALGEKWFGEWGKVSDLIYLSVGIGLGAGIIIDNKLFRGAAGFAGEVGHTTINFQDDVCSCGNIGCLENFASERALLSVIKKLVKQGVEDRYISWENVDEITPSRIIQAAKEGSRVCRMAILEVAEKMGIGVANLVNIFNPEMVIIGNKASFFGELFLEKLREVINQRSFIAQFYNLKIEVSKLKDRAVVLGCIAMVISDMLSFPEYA
Description: fluorescence polarization. To be noted: FP called inconclusive, binding seen by BLI; FP: 5 nM probe, 30 nM-3 uM protein, 22 C; recombinant protein; residues 1-399; protein details: C-terminal 6xHis; label: 5' 6-FAM on strand 1.

For the sequence “ATATTTTTTTATTTTCATGAAATCGCTTTCCTATCTAAAATATTAA (double strand) [xynMNC BLI probe]”, the binding result in series [1] (stronger association, slower dissociation) is given as “binds”.

Consider “ATTATAGATATTAGTTTGTTTAATAAACAAACTAAGTACACGTACT (double strand) [xylA FP probe]”, for which the binding result in series [2] is listed as “no binding”.

Turning to “CAAAAAATATTGACTAGTAAACGCTTACGATATATTATATAAAC (double strand) [XDL BLI probe]”, the binding result in series [1] (weaker interaction) is given as “binds more weakly”.

Take “CTTTGTGCTGAGGTTAGAAAGCGGTTTCAAGCAATTTAAAACAA (double strand) [xyl3A BLI probe]”: the binding result in series [1] (weaker interaction) is given as “binds more weakly”.
